Values quoted from earlier work in US6511811B1, “Protein kinase C antagonist related to insulin receptor” (The Regents of the University of California, priority 1995, dated 2003).

Tested on: insulin receptor kinase activity
Conditions: incubation of cells with the inhibitor; Mosthaf et al.; cited from earlier work

## CN[C@@H]1C[C@H]2O[C@@](C)([C@@H]1OC)n1c3ccccc3c3c4c(c5c6ccccc6n2c5c31)C(=O)NC4 [staurosporin]
  Effect on hyperglycemia-induced inhibition of insulin receptor kinase activity: is inhibited
